Assay results: patent US20120231006A1
Results are given in words; binding and its absence hold for the method and conditions named. Some binding calls cover weakened binding; strength is not graded here.

Chains of the proteins cited; added tags and fusions are not shown. Lines headed by an entry give the natural chain unless they say otherwise; changes in a name come on top.
UniProt Q96D31: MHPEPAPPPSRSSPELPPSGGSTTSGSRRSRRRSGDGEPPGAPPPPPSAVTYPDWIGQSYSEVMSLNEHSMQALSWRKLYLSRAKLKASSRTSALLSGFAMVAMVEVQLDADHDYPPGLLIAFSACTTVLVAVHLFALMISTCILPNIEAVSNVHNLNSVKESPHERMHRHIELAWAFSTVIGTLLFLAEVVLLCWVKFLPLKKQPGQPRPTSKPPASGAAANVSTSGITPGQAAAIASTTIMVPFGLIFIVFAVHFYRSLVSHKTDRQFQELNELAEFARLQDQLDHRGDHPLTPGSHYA

Columns and labels:
human Orai1 (human) [1] = target: human Orai1 (human) (UniProt Q96D31); assay: FACS, AM1-CHO/Orai1 cells
human Orai1 (human) [2] = target: human Orai1 (human) (UniProt Q96D31); assay: FACS, AM1/hOrai1 cells, recombinant mAb
[3] = target: cynomolgus Orai1 (cynomolgus monkey); assay: FACS, 293EBNA transfectants, 2 µg mAb
[4] = target: human Orai1 (N223S) variant protein (human) (UniProt Q96D31); assay: FACS, 293EBNA transfectants, 2 µg mAb
human Orai1 (human) [5] = target: human Orai1 (human) (UniProt Q96D31); assay: KinExA free-mAb rank, AM1-CHO/hOrai1/hSTIM1-YFP cells
human Orai1 (human) [6] = target: human Orai1 (human) (UniProt Q96D31); assay: KinExA, percent free mAb after equilibration of 30 pM Ab with AM1-CHO/hOrai1/hSTIM1-YFP cells at 3E4, 1E5 and 3E5 cell/ml

Measured: binding

B1: mAb 5H3.1 (antibody, human IgG2, lambda, V domains shown)
VH: QVQLVQSGAEVKKPGASVKVSCKASGYTFTDYYMNWVRQAPGQGLEWMGWINPNSGGTKYAQKFQGRVTMTRDTSIRTAYMELSRLRSDDTAVYYCAREYGGNSDWFDPWGQGTLVTVSS
VL: QSVLTQPPSVSGAPGQRVTISCTGSSSNIGAGYDVHWYQQLPGTAPKLLIYGNSNRPSGVPDRFSGSKSGTSASLAITGLQAEDEADYYCQSYDNRLSDSVVIGGGTKLAVQG
binds: human Orai1 (human) [1] | human Orai1 (human) [2] | [3] | [4] | human Orai1 (human) [5] | human Orai1 (human) [6]
